According to US20040110727A1, “Aldehyde-releasing compounds” (priority 2000, published 2004):

Tested on: DNA
Assay: Stability of [14C]Adriamycin-DNA adducts (temperature lability, dissociation at 37° C.)

COc1cccc2c1C(=O)c1c(O)c3c(c(O)c1C2=O)C[C@@](O)(C(=O)CO)C[C@@H]3O[C@H]1C[C@H](N)[C@H](O)[C@H](C)O1 [Adriamycin]
melting temperature (Tm) of adducts (AN-9/esterase-mediated adducts in vitro): 74.3±3.5 °C
melting temperature (Tm) of adducts (adducts formed in IMR-32 cells in the presence of AN-9 (4 μM [14C] Adriamycin 2 hr, then 260 μM AN-9 2 hr)): 75.1±0.4 °C
melting temperature (Tm) of adducts (formaldehyde-mediated adducts in vitro): 72.2±1.6 °C
